Experimental data taken from PubChem BioAssay AID485297 (National Center for Advancing Translational Sciences (NCATS), 2010).
About 9,100 (2.8%) of roughly 320,000 compounds were called active. Another 3% or so got no clear call; they are omitted. Most of the actives are listed elsewhere, so they are rarer here than in the full data. The source gives no active or inactive call for entries shown without one.

Assay: qHTS Assay for Rab9 Promoter Activators; note: % of control where 0% means no effect; nearly all actives have a fitted effect of over 60% in size
Conditions: Huh7 Rab9 promoter-luciferase reporter, luminescence, 24 h; at 9.22 µM (top of the series; calls come from the whole dose curve)
From the text: NIH Chemical Genomics Center [NCGC] NIH Molecular Libraries Probe Production centers Network [MLPCN] MLPCN Grant: MH089537-01 Assay Submitter (PI): Yiannis A. Ioannou NCGC Assay Overview: Niemann Pick Type C (NPC) is a rare neurodegenerative lipidosis that is characterized by lipid storage in the endosomal/lysosomal system. Treatment modalities for this devastating disease are currently non-existent due to the severe obstacles associated with accessing the central nervous system with proteins or genes (Ioannou, 2000). We have developed a new paradigm, termed "Orphan Receptor Bypass Therapy" (ORByT), to address these disorders. This paradigm posits the existence of endogenous "suppressor" proteins whose expression can dramatically improve LSD pathogenesis. The goal is the identification/discovery of small chemical compounds that can modulate the expression of these proteins and provide a new treatment modality for these devastating disorders. One such protein whose overexpression reverses aspects of the NPC phenotype is Rab9. […]
The Rab9 promoter is cloned in front of the luciferase reporter gene, therefore […] promoter activation results in luciferase expression. […] 7.Read using the luminescence protocol on the ViewLux plate reader (Perkin Elmer).

Row | Compound | activation, negative = inhibition [%]
1 | COc1ccc(C(=O)Nn2c(SCC(=O)N3CCC(C)CC3)nc3ccccc3c2=O)cc1 | 62.9
2 | Cc1cc(C)cc(C(=O)NC(CC(N)=O)c2ccc(NCC3CC3)c([N+](=O)[O-])c2)c1 (configuration not stated) | -57.6
